PMC10724205

Sequences of proteins named here, by UniProt entry; tags and fusion partners are left off. A change or cut given only in a name is not applied to a line headed by its entry. Residues count along the entry.
UniProt Q12778: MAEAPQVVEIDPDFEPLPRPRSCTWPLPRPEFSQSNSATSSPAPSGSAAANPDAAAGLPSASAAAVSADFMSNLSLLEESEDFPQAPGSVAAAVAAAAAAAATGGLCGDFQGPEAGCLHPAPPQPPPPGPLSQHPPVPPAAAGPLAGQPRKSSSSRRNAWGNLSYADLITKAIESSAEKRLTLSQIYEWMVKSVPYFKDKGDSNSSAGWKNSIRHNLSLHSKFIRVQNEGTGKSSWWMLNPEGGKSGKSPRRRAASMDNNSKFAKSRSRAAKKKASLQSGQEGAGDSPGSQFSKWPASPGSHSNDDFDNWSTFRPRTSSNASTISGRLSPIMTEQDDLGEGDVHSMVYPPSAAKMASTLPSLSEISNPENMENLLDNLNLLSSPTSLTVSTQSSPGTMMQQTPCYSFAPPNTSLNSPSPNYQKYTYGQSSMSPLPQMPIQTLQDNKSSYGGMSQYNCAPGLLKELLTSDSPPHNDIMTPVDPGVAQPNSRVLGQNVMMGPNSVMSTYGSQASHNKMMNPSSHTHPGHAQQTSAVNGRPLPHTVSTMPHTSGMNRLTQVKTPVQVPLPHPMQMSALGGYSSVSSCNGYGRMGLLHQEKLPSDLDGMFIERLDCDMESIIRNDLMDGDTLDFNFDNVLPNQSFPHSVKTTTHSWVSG
UniProt Q09472, residues 566-645: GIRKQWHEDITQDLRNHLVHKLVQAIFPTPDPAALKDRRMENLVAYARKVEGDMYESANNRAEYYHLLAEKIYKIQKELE

Target: CFP-LacI-FOXO1 C-terminal AD fusion protein (UniProt Q12778)
Assay: LacO array recruitment assay; U2OS cells with the Lac operon array co-transfected with CFP-LacI-FOXO1 C-terminal AD and one mCherry-NLS-p300 domain fusion; fluorescent proteins imaged after 48 h

## mCherry-NLS-p300 KIX domain fusion protein (from UniProt Q09472 566-645) (domain or fragment)
  binding: binds weakly

No constants are given. Whether binding was seen depends on the method and setting. A result given as binding can be weak or reduced; the word gives no strength.
